Source: publication doi:10.1101/573675

System: NaERF2-like (Nicotiana attenuata)
Experiment: EMSA
Details: 300 ng protein, 30 ng labeled probe

| Sequence | binding result |
| --- | --- |
| TAGATTAATTAATTCTACT (double strand) [EM13 mutant] | no binding |
| TAGATTATCTAATTCTACT (double strand) [EM13] | binds |

The exact form of at least one protein or probe is not confirmed. A negative result means that nothing was seen under these conditions.
